Results are given in words; binding and its absence hold for the method and conditions named. Binding seen in cells or lysates may run through a third protein. Some results given as binding are weak or reduced against the parent protein; the word gives no strength. For some of these results: Sequences can lack the tags named with a protein. Blank lines part the entries; values can stand above or below the binder they belong to.
Columns and labels:
[1] = target: HNRNPC, endogenous (human (endogenous in 293T or PLC-8024)) (UniProt P07910); assay: co-IP; endogenous proteins; 293T and PLC-8024 cells named for the figure; detected by WB
[2] = target: HA-HNRNPC, ectopically overexpressed in Hepa1-6 and 3T3 cells (UniProt P07910); assay: co-IP; ectopically overexpressed tagged proteins in mouse cell lines Hepa1-6 and 3T3
[3] = target: HA-HNRNPC, ectopically overexpressed in 293T and PLC-8024 cells (human) (UniProt P07910); assay: co-IP; ectopically overexpressed proteins in 293T and PLC-8024 cells (co-transfected plasmids); anti-Flag or anti-HA agarose, WB with anti-Flag and anti-HA
[4] = target: HNRNPC of the GST-pulldown assay (UniProt P07910); assay: pull-down; GST-pulldown assay to test whether the interaction is direct (Fig. S11)

By UniProt entry, the sequences of proteins in these tests, tags left out.
UniProt P07910: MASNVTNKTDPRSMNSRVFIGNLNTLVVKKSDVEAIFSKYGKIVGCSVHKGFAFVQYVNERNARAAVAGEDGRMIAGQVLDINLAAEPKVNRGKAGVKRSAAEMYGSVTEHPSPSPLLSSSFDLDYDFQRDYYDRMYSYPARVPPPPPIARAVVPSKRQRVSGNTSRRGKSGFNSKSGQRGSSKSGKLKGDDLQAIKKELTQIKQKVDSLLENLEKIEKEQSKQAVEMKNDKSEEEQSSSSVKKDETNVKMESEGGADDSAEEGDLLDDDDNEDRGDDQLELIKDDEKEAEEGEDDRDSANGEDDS

binding [1]: binds
B1: Ubiquitin-specific protease 39 (USP39), endogenous (protein, UniProt Q53GS9 1-565)
chain: MSGRSKRESRGSTRGKRESESRGSSGRVKRERDREREPEAASSRGSPVRVKREFEPASAREAPASVVPFVRVKREREVDEDSEPEREVRAKNGRVDSEDRRSRHCPYLDTINRSVLDFDFEKLCSISLSHINAYACLVCGKYFQGRGLKSHAYIHSVQFSHHVFLNLHTLKFYCLPDNYEIIDSSLEDITYVLKPTFTKQQIANLDKQAKLSRAYDGTTYLPGIVGLNNIKANDYANAVLQALSNVPPLRNYFLEEDNYKNIKRPPGDIMFLLVQRFGELMRKLWNPRNFKAHVSPHEMLQAVVLCSKKTFQITKQGDGVDFLSWFLNALHSALGGTKKKKKTIVTDVFQGSMRIFTKKLPHPDLPAEEKEQLLHNDEYQETMVESTFMYLTLDLPTAPLYKDEKEQLIIPQVPLFNILAKFNGITEKEYKTYKENFLKRFQLTKLPPYLIFCIKRFTKNNFFVEKNPTIVNFPITNVDLREYLSEEVQAVHKNTTYDLIANIVHDGKPSEGSYRIHVLHHGTGKWYELQDLQVTDILPQMITLSEAYIQIWKRRDNDETNQQGA

binding [2]: binds
B2: Flag-USP39, ectopically overexpressed in Hepa1-6 and 3T3 cells (protein, UniProt Q53GS9 1-565)
chain: MSGRSKRESRGSTRGKRESESRGSSGRVKRERDREREPEAASSRGSPVRVKREFEPASAREAPASVVPFVRVKREREVDEDSEPEREVRAKNGRVDSEDRRSRHCPYLDTINRSVLDFDFEKLCSISLSHINAYACLVCGKYFQGRGLKSHAYIHSVQFSHHVFLNLHTLKFYCLPDNYEIIDSSLEDITYVLKPTFTKQQIANLDKQAKLSRAYDGTTYLPGIVGLNNIKANDYANAVLQALSNVPPLRNYFLEEDNYKNIKRPPGDIMFLLVQRFGELMRKLWNPRNFKAHVSPHEMLQAVVLCSKKTFQITKQGDGVDFLSWFLNALHSALGGTKKKKKTIVTDVFQGSMRIFTKKLPHPDLPAEEKEQLLHNDEYQETMVESTFMYLTLDLPTAPLYKDEKEQLIIPQVPLFNILAKFNGITEKEYKTYKENFLKRFQLTKLPPYLIFCIKRFTKNNFFVEKNPTIVNFPITNVDLREYLSEEVQAVHKNTTYDLIANIVHDGKPSEGSYRIHVLHHGTGKWYELQDLQVTDILPQMITLSEAYIQIWKRRDNDETNQQGA

binding [3]: binds
B3: Flag-USP39, ectopically overexpressed in 293T and PLC-8024 cells (protein, UniProt Q53GS9 1-565)
chain: MSGRSKRESRGSTRGKRESESRGSSGRVKRERDREREPEAASSRGSPVRVKREFEPASAREAPASVVPFVRVKREREVDEDSEPEREVRAKNGRVDSEDRRSRHCPYLDTINRSVLDFDFEKLCSISLSHINAYACLVCGKYFQGRGLKSHAYIHSVQFSHHVFLNLHTLKFYCLPDNYEIIDSSLEDITYVLKPTFTKQQIANLDKQAKLSRAYDGTTYLPGIVGLNNIKANDYANAVLQALSNVPPLRNYFLEEDNYKNIKRPPGDIMFLLVQRFGELMRKLWNPRNFKAHVSPHEMLQAVVLCSKKTFQITKQGDGVDFLSWFLNALHSALGGTKKKKKTIVTDVFQGSMRIFTKKLPHPDLPAEEKEQLLHNDEYQETMVESTFMYLTLDLPTAPLYKDEKEQLIIPQVPLFNILAKFNGITEKEYKTYKENFLKRFQLTKLPPYLIFCIKRFTKNNFFVEKNPTIVNFPITNVDLREYLSEEVQAVHKNTTYDLIANIVHDGKPSEGSYRIHVLHHGTGKWYELQDLQVTDILPQMITLSEAYIQIWKRRDNDETNQQGA

binding [4]: binds
B4: USP39 of the GST-pulldown assay (protein, UniProt Q53GS9 1-565)
chain: MSGRSKRESRGSTRGKRESESRGSSGRVKRERDREREPEAASSRGSPVRVKREFEPASAREAPASVVPFVRVKREREVDEDSEPEREVRAKNGRVDSEDRRSRHCPYLDTINRSVLDFDFEKLCSISLSHINAYACLVCGKYFQGRGLKSHAYIHSVQFSHHVFLNLHTLKFYCLPDNYEIIDSSLEDITYVLKPTFTKQQIANLDKQAKLSRAYDGTTYLPGIVGLNNIKANDYANAVLQALSNVPPLRNYFLEEDNYKNIKRPPGDIMFLLVQRFGELMRKLWNPRNFKAHVSPHEMLQAVVLCSKKTFQITKQGDGVDFLSWFLNALHSALGGTKKKKKTIVTDVFQGSMRIFTKKLPHPDLPAEEKEQLLHNDEYQETMVESTFMYLTLDLPTAPLYKDEKEQLIIPQVPLFNILAKFNGITEKEYKTYKENFLKRFQLTKLPPYLIFCIKRFTKNNFFVEKNPTIVNFPITNVDLREYLSEEVQAVHKNTTYDLIANIVHDGKPSEGSYRIHVLHHGTGKWYELQDLQVTDILPQMITLSEAYIQIWKRRDNDETNQQGA

Source: article PMC10567755
